In patent US20170183667A1 (ANAEROPHARMA SCIENCE, published 2017):
These are yes or no findings as the source states them, for the method shown. Some entries that bind do so weakly or less than the wild type.

Sequences of proteins named here, by UniProt entry; tags and fusion partners are left off. A change or cut given only in a name is not applied to a line headed by its entry. Residues count along the entry.
UniProt Q02242: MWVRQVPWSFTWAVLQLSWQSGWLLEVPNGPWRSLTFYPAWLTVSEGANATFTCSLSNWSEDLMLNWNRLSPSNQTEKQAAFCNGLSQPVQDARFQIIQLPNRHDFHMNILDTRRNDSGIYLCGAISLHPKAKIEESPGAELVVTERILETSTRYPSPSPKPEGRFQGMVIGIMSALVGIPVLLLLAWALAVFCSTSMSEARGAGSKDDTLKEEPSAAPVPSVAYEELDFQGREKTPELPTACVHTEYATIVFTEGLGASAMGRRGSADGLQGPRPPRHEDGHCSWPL
mouse PD-1 expressed on CD3/CD28-stimulated CD4 positive cells of Balb/c mouse spleen: residues 25-288 of Q02242
Recombinant Mouse PD-1 Fc Chimera (R&D Systems): residues 25-167 of Q02242
UniProt Q15116: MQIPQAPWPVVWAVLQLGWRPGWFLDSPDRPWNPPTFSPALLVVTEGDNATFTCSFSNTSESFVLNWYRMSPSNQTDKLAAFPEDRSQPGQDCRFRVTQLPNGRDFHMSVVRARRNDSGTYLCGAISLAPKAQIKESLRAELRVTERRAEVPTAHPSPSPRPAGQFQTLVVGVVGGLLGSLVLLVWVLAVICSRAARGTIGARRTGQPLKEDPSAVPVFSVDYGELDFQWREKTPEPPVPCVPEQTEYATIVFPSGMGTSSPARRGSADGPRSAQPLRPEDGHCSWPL
human PD-1 over-expressed on Jurkat cells and HEK293T cells: residues 25-288 of Q15116
Recombinant Human PD-1 Fc Chimera (R&D Systems): residues 25-167 of Q15116

Legend:
[1] = target: mouse PD-1 expressed on CD3/CD28-stimulated CD4 positive cells of Balb/c mouse spleen (mouse) (UniProt Q02242); experiment: flow cytometry, scFv 10 ug/mL, anti-His-tag Alexa Fluor 488 detection
[2] = target: Recombinant Mouse PD-1 Fc Chimera (R&D Systems) (mouse) (UniProt Q02242); experiment: ELISA, mPD-1 Fc chimera immobilised
[3] = target: Recombinant Human PD-1 Fc Chimera (R&D Systems) (human) (UniProt Q15116); experiment: ELISA, hPD-1 Fc chimera immobilised
[4] = target: human PD-1 over-expressed on Jurkat cells and HEK293T cells (human) (UniProt Q15116); experiment: flow cytometry, HEK293T cells over-expressing human PD-1, scFv 10 ug/mL
[5] = target: human PD-1 over-expressed on Jurkat cells and HEK293T cells (human) (UniProt Q15116); experiment: flow cytometry, Jurkat cells over-expressing human PD-1, scFv 10 ug/mL
[6] = target: human PD-1 over-expressed on Jurkat cells and HEK293T cells (human) (UniProt Q15116); experiment: flow cytometry

binding [1] | binding [2] | binding [3] | binding [4] | binding [5] | binding [6] | Binder
binds | binds |  |  |  |  | anti-PD-1-3 scFv antibody purified from Bifidobacterium longum 105-A/pHuSP7L20-scFv-PD-1-3 strain (scFv, also called anti-mouse PD-1 scFv antibody; mPD-1 scFv) scFv: DSAQTSAVVSSRSFPKASSVMEVRLLESGGGLVKPEGSLKLSCVASGFTFSDYFMSWVRQAPGKGLEWVAHIYTKSYNYATYYSGSVKGRFTISRDDSRSMVYLQMNNLRTEDTATYYCTRDGSGYPSLDFWGQGTQVTVSSGGGGSGGGGSGGGGSYELTQPPSASVNVGETVKITCSGDQLPKYFADWFHQRSDQTILQVIYDDNKRPSGIPERISGSSSGTTATLTIRDVRAEDEGDYYCFSGYVDSDSKLYVFGSGTQLTVLGHHHHHH
 |  | binds | binds | binds | binds | anti-PD-1-2 scFv antibody purified from Bifidobacterium longum 105-A/pHuSP7L20-scFv-PD-1-2 strain (scFv, also called anti-human PD-1 antibody) scFv: DSAQTSAVVSSRSFPKASSVMQVQLQESGPGLVKPSQSLSLTCTVTGHSITSDYAWNWIRQFPGDKLEWMGYISYSGYTTYNPSLKSRVSITRDTSKNQFFLQLNSVTTEDTATYFCARDLDYGPWFAYWGQGTTVTVSSGGGGSGGGGSGGGGSDIQMTQSPASLSASVGETVTLTCRASENIHNYLAWYQQKQGKSPQLLVYNVKTLADGVPSRFSGSGSGTQYSLKINSLQPEDFGSYYCQHFWSSPWTFGGGTKLEIKRHHHHHH
